Results as given in patent publication US4281136A, “2-Alkyl-3-haloisothiazolium salts and their derivatives” (Givaudan Corporation, priority 1978, dated 1981).
At least one compound was matched to its structure with a doubt left.

Tested on: Aureobasidium pullulans
Test: preservative for latex paints
Assay type: cell-based
Conditions: three weeks, 27°-28°, none, medium or heavy
Method: Various quantities of the chemical were incorporated into a white exterior vinyl acetate paint. Whatman #30 filter paper was painted with one coat of paint on each side. One inch squares were cut and placed in Petri dishes on a malt agar.
The surface of both the agar and the painted squares were inoculated with a spore suspension of Aureobasidium pullulans. The plates were examined for zones of inhibition and surface growth after three weeks incubation in a humidity chamber at 27°-28°.
Various quantities of 4,5-dichloro-2-methyl-4-isothiazolin-3-thione were incorporated into a white exterior vinyl acetate paint and tested as described in Example IV.

C[n+]1scc(Cl)c1Cl [No. 22 (Table I), 3,4-Dichloro-2-methylisothiazolium fluorosulfonate]
Surface (growth on the surface of painted square) (Conc. 0.25% in vinyl acetate paint): None | Surface (growth on the surface of painted square) (Conc. 0.5% in vinyl acetate paint): None
